Measurements reported in PubChem BioAssay AID1224826 (NIAID, 2016)
The whole screen tested about 17,000 reagents; shown is a part drawn at random. Of all reagents, about 1,110 (6.6%) got an active call. 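Active means lowered or raised reporter signal; replicate intensities are raw and not normalised per plate.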 Further read-outs or replicates are left out here. Reagent sequences are not shown.

Purpose: 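Genes that change LPS-induced Tnf promoter activity in mouse macrophages when knocked down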 (primary screen)
Cells: RAW264.7 G9 macrophages from mouse bearing reporters for p65 (GFP) and the Tnf promoter (mCherry)
Reagents: siRNA pool against mouse genes, 100 nM
Time to read-out: 16 h of LPS stimulation, after 2 days of siRNA transfection
Conditions: bacterial lipopolysaccharide (Salmonella minnesota R595), 10 ng/ml
Measurement: 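Nuclear mCherry signal of the Tnf promoter reporter measured by imaging after background removal, scaled to each plate median and turned into robust z-scores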
Reading the numbers: Tnf reporter robust z-score: higher = stronger Tnf promoter reporter signal after LPS
Active means: 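Called active when robust z-score is at most -1.3, matching the median of the Tlr4 knock-down control, or over 3; control wells and wells with under 50 cells never active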
Meaning of the calls: active = Tnf reporter clearly lowered or raised; inactive = no clear change in Tnf reporter

Fam114a1 gave Tnf reporter robust z-score -0.06; fewer than 50 cells in well enough cells in well; inactive.
Gjb2 showed Tnf reporter robust z-score -0.68; fewer than 50 cells in well enough cells in well; inactive.
Silencing of Nme2 resulted in: Tnf reporter robust z-score -0.84; fewer than 50 cells in well enough cells in well; inactive.
Against Smarca5 the deposit lists Tnf reporter robust z-score -0.76; fewer than 50 cells in well enough cells in well; inactive.
For Sntb1, the values are Tnf reporter robust z-score 1.17; fewer than 50 cells in well enough cells in well; inactive.
After knock-down of Klhl13, the screen gave Tnf reporter robust z-score -0.91; fewer than 50 cells in well enough cells in well; inactive.
Against Gtf3c1, the values are Tnf reporter robust z-score -1.02; fewer than 50 cells in well enough cells in well; inactive.

Records listed so far whose target name begins with G or g:
Gjb2 → Tnf reporter robust z-score = -0.68; fewer than 50 cells in well = enough cells in well; outcome = inactive
Gtf3c1 → Tnf reporter robust z-score = -1.02; fewer than 50 cells in well = enough cells in well; outcome = inactive

The list goes on:
After knock-down of Sik1, the record shows Tnf reporter robust z-score 1.94; fewer than 50 cells in well enough cells in well; inactive.
Depletion of Ttc39b gave: Tnf reporter robust z-score 0.36; fewer than 50 cells in well enough cells in well; inactive.
Knock-down of Iqgap1 resulted in: Tnf reporter robust z-score -0.95; fewer than 50 cells in well enough cells in well; inactive.
With knock-down of Puf60, the record shows Tnf reporter robust z-score 0.15; fewer than 50 cells in well enough cells in well; inactive.
For Cilk1, the values are Tnf reporter robust z-score 0.94; fewer than 50 cells in well enough cells in well; inactive.
